Assay results taken from PMC11944851, “Computationally Guided Design, Synthesis, and Evaluation of Novel Non-Hydroxamic Histone Deacetylase Inhibitors, Based on N-Trifluoroacetamide as a Zinc-Binding Group, Against Breast Cancer” (Pharmaceuticals, 2025).
Where two headings read alike, the source gives them in different places.

Key:
Type in all cases: cell-based
MCF-10A cells = test: MTT cell viability, non-tumorigenic MCF-10A; settings: 72 h, non-tumorigenic breast cells, read-out: Cytotoxic Activity IC50 MCF-10A
Source text: (§1) Since the use of these compounds is promising for solid tumors and non-malignant diseases, structural modifications that improve the pharmacokinetic profile, widen the therapeutic window, and reduce the toxic risk potential are desirable.
(§2) For the culture of normal breast epithelial cells MCF-10A, DMEM-F12 medium without phenol red was used, supplemented with 5% fetal bovine serum (Gibco, Waltham, MA, USA), 1% Penicillin/Streptomycin (10,000 U/mL, Gibco, Waltham, MA, USA), 1% non-essential amino acids (Gibco, Waltham, MA, USA), 0.33% hydrocortisone, 0.2% insulin (100 U/mL), and 0.002% EGF (1 µg/µL). For the assays with MCF-10A cells, 2.5 × 10^3 cells/well were seeded in 100 µL of medium.
(§3) The 3-(4,5-dimethylthiazol-2-yl)-2,5-diphenyl tetrazolium bromide assay was used to evaluate the effect of the designed compounds on cell viability. These compounds were initially dissolved in DMSO (dimethyl sulfoxide) as stock solutions at 150 mM. […] The optical density of the wells was measured at 550 nm using an ELISA reader (MultiSkan, Thermo Scientific, Waltham, MA, USA). Finally, cell viability was expressed as a percentage relative to the negative control (untreated and 0.46% DMSO).
(§4) Cytotoxicity data were analyzed using one-way ANOVA to evaluate differences between the treated groups and the negative control (DMSO). […]

[1] = MTT cell viability, non-tumorigenic MCF-10A; settings: human, MCF-10A non-cancerous mammary epithelial cells, non-tumorigenic breast cells, read-out: Cytotoxic Activity IC50 MCF-10A
Source text: as §1, §2, §3, §4

MCF-7 cells = test: MTT cell viability, MCF-7; settings: read-out: Cytotoxic Activity IC50 MCF-7
Experimental: (§5) The BC cell lines MCF-7 and MDA-MB-231 were cultured in high-glucose DMEM medium with phenol red, supplemented with 7% and 10% fetal bovine serum (Gibco, Waltham, MA, USA), respectively, 1% Penicillin/Streptomycin (10,000 U/mL, Gibco, Waltham, MA, USA), and 1% non-essential amino acids (Gibco, Waltham, MA, USA). Cell cultures were maintained in a temperature-controlled incubator at 37 °C and 5% CO2 atmosphere. For the 72 h assays with MDA-MB-231, 1.8 x 10³ cells/well were seeded in 100 µL of medium.
as §3, with “mM. Cells were seeded in 96-well plates (NEST Biotechnology Co., Wuxi, China) at different densities, depending on the cell line used and the incubation time with the treatments, and left in 100 µL of the corresponding culture medium for 24 h to allow for adhesion.” for “mM.”
as §4

MDA-MB-231 cells = test: MTT cell viability, MDA-MB-231; settings: Homo sapiens, MDA-MB-231, 72 h, read-out: Cytotoxic Activity IC50 MDA-MB-231
Experimental: as §5
as §3, with “mM. Cells were seeded in 96-well plates (NEST Biotechnology Co., Wuxi, China) at different densities, depending on the cell line used and the incubation time with the treatments, and left in 100 µL of the corresponding culture medium for 24 h to allow for adhesion.” for “mM.”
as §4

Q: For O=C(CCCCCCC(=O)Nc1ccccc1)NO [SAHA, suberoylanilide hydroxamic acid, reference compound], which IC50 (MCF-10A cells) is on record?
A: The IC50 was 3.02 ± 0.32 µM.

Q: And the IC50 at 72 h [1]?
A: Its IC50 at 72 h is 3000 nM.

Q: What about the IC50 (MCF-7 cells; 72 h) of the same compound?
A: Its IC50 is 4.23 ± 1.59 µM.

Q: And the IC50 (MCF-7 cells; Homo sapiens, MCF7, 72 h)?
A: The IC50 was 4.2 µM.

Q: And the IC50 (MDA-MB-231 cells)?
A: Its IC50 is 3.5 ± 0.56 µM.
